Each structure is given as a SMILES string. This is one part of the list. This data set is noisy: repeats of one test often differ as much as different tests do.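 Fusion between ACE2-bearing and full-length-spike-bearing U2OS cells was measured by imaging as the percentage of nuclei with both cell types' fluorescent markers. An inhibitory hit is a non-toxic compound whose fusion z-score is below -3, more than three standard deviations beneath the plate's DMSO wells.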

For this assay, the system named is U2OS ACE2 x SARS-CoV-2 spike co-culture. Nature of the assay: cell-cell fusion (fraction fused) z-score vs plate DMSO control; higher = more fusion. The following applies: 30 µM; 5 h; toxicity class: non-toxic, passed QC.
As for `C[C@@H]1CN(c2c(F)c(N)c3c(=O)c(C(=O)O)cn(C4CC4)c3c2F)C[C@H](C)N1` [Sparfloxacin], the “cell-cell fusion (z-score)” value is inactive: 3.89.

As for `CC(C)(C)CC(C)(C)c1ccc(OCCOCC[N+](C)(C)Cc2ccccc2)cc1.[Cl-]`, the “cell-cell fusion (z-score)” value is active: -6.89.

For the molecule `CCCCCN(CCCCC)C(=O)C(CCC(=O)[O-])NC(=O)c1ccc(Cl)c(Cl)c1.[Na+]` (centres undefined) [Lorglumide sodium], the “cell-cell fusion (z-score)” value is inactive: 3.08.

As to `Brc1c(NC2=NCCN2)ccc2nccnc12`, the “cell-cell fusion (z-score)” value was inactive: -0.293.

As to `CNC[C@H](O)c1ccc(O)c(O)c1.O=C(O)C(O)C(O)C(=O)O` [(-)-Epinephrine bitartrate], the “cell-cell fusion (z-score)” value was active: -3.65.

As for `O=C(CCCN1CCC2(CC1)C(=O)NCN2c1ccccc1)c1ccc(F)cc1`, the “cell-cell fusion (z-score)” value was inactive: 2.93.

Regarding `COc1cc(C/C=C/c2ccccc2)c(OC)cc1O`, the “cell-cell fusion (z-score)” value is inactive: 2.6.

On to `CCC(=O)Oc1ccc2c(c1)CC[C@@H]1[C@@H]2CC[C@]2(C)[C@@H](OC(=O)CC)CC[C@@H]12` [17-Beta-Estradiol-3,17-Dipropionate], for which the “cell-cell fusion (z-score)” value was inactive: 1.99.

As to `CO/N=C(\C(=O)N[C@@H]1C(=O)N2C(C(=O)OCOC(=O)C(C)(C)C)=C(/C=C\c3scnc3C)CS[C@H]12)c1csc(N)n1` [Cefditoren pivoxil], the “cell-cell fusion (z-score)” value was inactive: 3.28.

As for `CCOc1nc2cccc(C(=O)OC(C)OC(=O)OC3CCCCC3)c2n1Cc1ccc(-c2ccccc2-c2nn[nH]n2)cc1` (centres undefined) [Candesartan Cilexetil], the “cell-cell fusion (z-score)” value is inactive: -2.14.

For `O=c1ccn([C@@H]2O[C@H](COP(=O)([O-])OP(=O)([O-])O)[C@@H](O)[C@H]2O)c(=O)[nH]1.[Na+].[Na+]` [Uridine 5'-diphosphate sodium], the “cell-cell fusion (z-score)” value was inactive: 2.48.

Take `Nc1ncn([C@H]2C[C@H](O)[C@@H](CO)O2)c(=O)n1` [Decitabine]: the “cell-cell fusion (z-score)” value was inactive: 1.58.

Regarding `COC(=O)C1=C(C)NC(C)=C(C(=O)OCCN(C)Cc2ccccc2)C1c1cccc([N+](=O)[O-])c1.Cl` (centres undefined) [Nicardipine hydrochloride], the “cell-cell fusion (z-score)” value is inactive: 1.78.

In the case of `CC(CCc1ccc(O)cc1)NCCc1ccc(O)c(O)c1.Cl` (centres undefined) [Dobutamine hydrochloride], the “cell-cell fusion (z-score)” value was inactive: -1.1.

Regarding `COc1nc(C)cnc1NS(=O)(=O)c1cccnc1-c1ccc(-c2nnco2)cc1` [Zibotentan (ZD4054)], the “cell-cell fusion (z-score)” value is inactive: 2.14.

With `Cl.O[Si](CCCN1CCCCC1)(c1ccc(F)cc1)C1CCCCC1` (centres undefined) [Hexahydro-sila-difenidol hydrochloride, p-fluoro analog], the “cell-cell fusion (z-score)” value is inactive: -1.29.

As to `NC(Cn1ccc(=O)c(O)c1)C(=O)O` (centres undefined), the “cell-cell fusion (z-score)” value is inactive: 2.2.

On to `CCN(CC)CCOCCOC(=O)C(CC)(CC)c1ccccc1.O=C(O)CC(O)(CC(=O)O)C(=O)O`, for which the “cell-cell fusion (z-score)” value was inactive: 3.3.

Regarding `NC(Cc1ccc(F)cc1)C(=O)O` (centres undefined), the “cell-cell fusion (z-score)” value was inactive: 3.02.

Consider `C/C(=C\c1csc(C)n1)[C@@H]1C[C@@H]2O[C@]2(C)CCC[C@H](C)[C@H](O)[C@@H](C)C(=O)C(C)(C)[C@@H](O)CC(=O)N1` [Ixabepilone], for which the “cell-cell fusion (z-score)” value is inactive: 0.538.

`CCCCC(CC)COc1ccc(-c2nc(-c3ccc(OC)cc3)nc(-c3ccc(OCC(CC)CCCC)cc3O)n2)c(O)c1.NCCO.NCCO` (centres undefined): the “cell-cell fusion (z-score)” value was inactive: 3.46.

Take `CC1(C)C2CC(=O)[C@]3(C)C(CC[C@@]4(C)[C@H](c5ccoc5)OC(=O)[C@H]5O[C@]543)[C@@]2(C)C(=O)C[C@H]1O` (some centres undefined): the “cell-cell fusion (z-score)” value was inactive: 2.55.

As for `COC(=O)[C@H]1[C@H]2C[C@@H]3c4[nH]c5cc(OC)ccc5c4CCN3C[C@H]2C[C@@H](OC(=O)c2cc(OC)c(OC)c(OC)c2)[C@@H]1OC` [Reserpine], the “cell-cell fusion (z-score)” value is inactive: 0.829.

With `O=C1CCCC(=O)C1C(=O)c1ccc(C(F)(F)F)cc1[N+](=O)[O-]` [Nitisinone], the “cell-cell fusion (z-score)” value was inactive: 3.14.

As for `Oc1ncnc2[nH]ncc12` [Allopurinol], the “cell-cell fusion (z-score)” value was inactive: 2.85.

Consider `NS(=O)(=O)c1cc2c(cc1Cl)NC(C(Cl)Cl)NS2(=O)=O` (centres undefined) [Trichlormethiazide], for which the “cell-cell fusion (z-score)” value was inactive: 3.39.

Regarding `CCCC(CCC)C(=O)OC1CC2CCC(C1)[N+]2(C)C.[Br-]` (centres undefined) [Anisotropine methyl bromide], the “cell-cell fusion (z-score)” value was inactive: -1.92.

`O=C(O[C@@H]1Cc2c(O)cc(O)cc2O[C@@H]1c1cc(O)c(=O)c2c(O)c(O)cc([C@H]3Oc4cc(O)cc(O)c4C[C@H]3O)c2c1)c1cc(O)c(O)c(O)c1`: the “cell-cell fusion (z-score)” value was inactive: 0.492.

As for `O=C(O)CCCCCCCC(=O)O` [Azelaic acid], the “cell-cell fusion (z-score)” value was inactive: 2.17.

With `O=C(O)CCCCCCCC(=O)O`, the “cell-cell fusion (z-score)” value was inactive: 2.52.

For the molecule `CC(C)[C@H]1CN[C@H](C(=O)O)[C@H]1CC(=O)O` [Dihydrokainic acid], the “cell-cell fusion (z-score)” value was inactive: 1.21.

For `O=C(CCCN1CCC(O)(c2ccc(Br)cc2)CC1)c1ccc(F)cc1`, the “cell-cell fusion (z-score)” value was inactive: 3.09.

For the molecule `COc1ccc(O)cc1`, the “cell-cell fusion (z-score)” value is inactive: 0.996.

With `O=c1[nH]c2ccccc2n1C1CCN(CCCC(c2ccc(F)cc2)c2ccc(F)cc2)CC1`, the “cell-cell fusion (z-score)” value was inactive: 2.56.

Turning to `Nc1nc(N)c2nc(-c3ccccc3)c(N)nc2n1`, the “cell-cell fusion (z-score)” value is inactive: 1.86.

Consider `CCCCOc1ccc(C(=O)CCN2CCCCC2)cc1.Cl`, for which the “cell-cell fusion (z-score)” value is inactive: 0.0433.

Take `CC(=O)Oc1c(C)cccc1C(=O)O`: the “cell-cell fusion (z-score)” value was inactive: 0.753.

In the case of `N[C@@H](Cc1cc(I)c(Oc2ccc(O)c(I)c2)c(I)c1)C(=O)O` [O-(4-Hydroxy-3-iodophenyl)-3,5-diiodo-L-tyrosine], the “cell-cell fusion (z-score)” value was inactive: 1.32.

As for `c1ccc2c(c1)sc1ccccc12`, the “cell-cell fusion (z-score)” value is inactive: 0.754.

With `CCNC(=O)/C=C/c1cccc(Br)c1`, the “cell-cell fusion (z-score)” value was inactive: 2.57.

As for `O=C(OCC(O)CO)c1ccccc1Nc1ccnc2cc(Cl)ccc12` (centres undefined), the “cell-cell fusion (z-score)” value was inactive: -2.88.

On to `C[C@@H]1CC2C3C[C@H](F)C4=CC(=O)C=C[C@]4(C)[C@@]3(F)[C@@H](O)C[C@]2(C)[C@@]1(O)C(=O)COC(=O)C(C)(C)C` (some centres undefined), for which the “cell-cell fusion (z-score)” value is inactive: -0.015.

Consider `Nc1nc2ccc(OC(F)(F)F)cc2s1`, for which the “cell-cell fusion (z-score)” value was inactive: 1.26.

On to `C[C@@H]1CC[C@]2(C(=O)O[C@@H]3O[C@H](CO[C@@H]4O[C@H](CO)[C@@H](O[C@H]5O[C@H](C)[C@H](O)[C@@H](O)[C@H]5O)[C@H](O)[C@H]4O)[C@@H](O)[C@H](O)[C@H]3O)CC[C@]3(C)C(=CCC4[C@@]5(C)C[C@@H](O)[C@H](O)[C@@](C)(CO)C5CC[C@]43C)C2[C@H]1C` (some centres undefined), for which the “cell-cell fusion (z-score)” value is inactive: 2.2.

Regarding `CC1(C)CCC(NC(=O)[C@@H](N)CCC(=O)O)CC1`, the “cell-cell fusion (z-score)” value was inactive: 3.04.

With `CCOC(=O)c1c(C)cc(O)cc1O`, the “cell-cell fusion (z-score)” value is inactive: 2.56.

Turning to `Oc1cccc(-c2nc(N3CCOCC3)c3oc4ncccc4c3n2)c1`, the “cell-cell fusion (z-score)” value is inactive: 0.811.

With `O=C(O)c1ccccc1Nc1ccccc1` [N-Phenylanthranilic acid], the “cell-cell fusion (z-score)” value was inactive: 1.92.

With `O=C1CCc2cc(OCCCCc3nnnn3C3CCCCC3)ccc2N1` [Cilostazol], the “cell-cell fusion (z-score)” value was inactive: 1.88.

With `C=CCCCCCCCCC(=O)O`, the “cell-cell fusion (z-score)” value is inactive: 2.16.

For `CCCCNc1ccc(C(=O)OCCN(C)C)cc1.Cl` [Tetracaine hydrochloride], the “cell-cell fusion (z-score)” value was inactive: 2.22.

On to `Cl.Nc1cc(N2CCCCC2)nc(N)[n+]1[O-]`, for which the “cell-cell fusion (z-score)” value is inactive: 2.87.

For the molecule `COc1cc2c(cc1OC)[C@@H]1C(=O)c3ccc4oc(C(C)C)cc4c3O[C@@H]1CO2`, the “cell-cell fusion (z-score)” value was inactive: 1.78.

For the molecule `COc1c(C)c2c(c(O)c1C/C=C(\C)CCC(=O)O)C(=O)OC2` [Mycophenolic acid], the “cell-cell fusion (z-score)” value was inactive: 2.81.

For the molecule `NC(=O)c1cnccn1` [Pyrazinecarboxamide], the “cell-cell fusion (z-score)” value was inactive: 1.32.

As to `N=C(N)NCCN1CCCCCCC1`, the “cell-cell fusion (z-score)” value is inactive: 2.31.

For `Cc1c(OCC(F)(F)F)ccnc1CS(=O)c1nc2ccccc2[nH]1` (centres undefined) [Lansoprazole], the “cell-cell fusion (z-score)” value was inactive: 2.59.

With `S=C=Nc1ccc(N=C=S)cc1`, the “cell-cell fusion (z-score)” value was inactive: 1.8.

For `CC(=O)OCC(=O)[C@@]1(O)CCC2C3C[C@H](C)C4=CC(=O)C=CC4(C)C3[C@@H](O)CC21C` (stereo partly drawn) [6alpha-METHYLPREDNISOLONE ACETATE], the “cell-cell fusion (z-score)” value is inactive: 3.93.

Take `CC(C)(Oc1ccc(CCNC(=O)c2ccc(Cl)cc2)cc1)C(=O)O`: the “cell-cell fusion (z-score)” value is inactive: 0.27.

As for `CC(C)(Oc1ccc(CCNC(=O)c2ccc(Cl)cc2)cc1)C(=O)O` [Bezafibrate], the “cell-cell fusion (z-score)” value is inactive: 3.7.

Regarding `O=C(O)c1ccccc1O`, the “cell-cell fusion (z-score)” value was inactive: 2.29.

Regarding `Cn1cnc2c1c(=O)[nH]c(=O)n2C.NCCO`, the “cell-cell fusion (z-score)” value is inactive: 2.68.

As to `CCCCCCCCCC(=O)O[C@H]1CC[C@H]2[C@@H]3CCC4=CC(=O)CC[C@@H]4[C@H]3CC[C@]12C` [Nandrolone decanoate], the “cell-cell fusion (z-score)” value is inactive: 2.63.

Regarding `C[C@]12C=CC(=O)C=C1CC[C@H]1[C@@H]3C[C@@H](O)[C@](O)(C(=O)CO)[C@@]3(C)C[C@H](O)[C@@]12F` [Triamcinolone], the “cell-cell fusion (z-score)” value was inactive: 2.96.

On to `CC/C(=C(\c1ccccc1)c1ccc(OCCN(C)C)cc1)c1ccccc1.O=C(O)CC(O)(CC(=O)O)C(=O)O`, for which the “cell-cell fusion (z-score)” value was inactive: 1.44.

As for `CC/C(=C(\c1ccccc1)c1ccc(OCCN(C)C)cc1)c1ccccc1.O=C(O)CC(O)(CC(=O)O)C(=O)O` [Tamoxifen citrate], the “cell-cell fusion (z-score)” value was active: -5.13.

Turning to `Cn1c(=O)c2c(ncn2CC(O)CO)n(C)c1=O` (centres undefined), the “cell-cell fusion (z-score)” value is inactive: 1.41.

`OC[C@H]1O[C@@H](O[C@H]2[C@H](O)[C@@H](O)[C@@H](O)O[C@@H]2CO)[C@H](O)[C@@H](O)[C@@H]1O`: the “cell-cell fusion (z-score)” value is inactive: 2.41.

These data come from the supplement of paper PMC8104966.
